Source: PubChem BioAssay AID1487 (National Center for Advancing Translational Sciences (NCATS), 2009)
The other results are listed elsewhere or left out. These are further read-outs of the screen, such as a control signal, another cell line or another target. No call is given for them. Compounds called inactive in the main read-out are mostly missing here. Words in brackets tell the shape of the fitted curve; partial curves, single points and poor fits give uncertain potencies.

Assay: qHTS Assay for Modulators of Lamin A Splicing
Settings: HeLa LMNA splicing GFP/RFP minigene ratio, 48 h
In short: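 Read-out is the ratio of GFP to DsRed2 object intensity, acquired by 488 nm laser-scanning cytometry on HeLa lamin A-EGFP minigene reporter cells. Compound incubation 48 hrs at 37 °C in Opti-MEM with 2% FBS; DMSO 0.5% final.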

[1] = measured here: GFP splicing reporter channel
[2] = measured here: RFP viability control channel

Row | SMILES | AC50 [1] | AC50 [2]
1 | Cc1cc(C(=O)c2ccc(Cl)cc2)c(NC(=O)CCl)s1 | 17.8 µM [falling, single point] | 25.1 µM [falling, single point]
2 | O=C(Nc1ccc(O)c(-c2nc3ccccc3s2)c1)c1cccs1 | 3.55 µM [rising, partial curve] | 0.631 µM [rising, partial curve]
3 | COc1ccc(CCC(=O)NCc2ccc3c(c2)CCN3C(=O)c2ccccc2)cc1 | 2.51 µM [falling, partial curve, poor fit] | 
4 | COc1ccc2[nH]cc(CCNc3ccnc(-c4cccnc4)n3)c2c1 | 12.6 µM [falling, partial curve] | 
5 | Oc1[nH]c2c(Cl)cc(Cl)cc2c1N=NC(=S)NCC1CCCO1 (centres undefined) | 7.08 µM [rising, full curve, poor fit] | 10 µM [rising, partial curve]
6 | Cc1ccc(-c2nn(-c3ccccc3)cc2/C=C/C(=O)OCC(=O)NC2CC2)o1 | 3.16 µM [falling, partial curve] | 0.631 µM [falling, full curve]
7 | CCOc1ccc(C(=O)N2CCN(c3cccc(C)c3C)CC2)cc1 | 14.1 µM [rising, partial curve] | 17.8 µM [rising, partial curve]
8 | O=C(Nc1cccc(S(=O)(=O)N2CCOCC2)c1)c1ccc(N2CCOCC2)c([N+](=O)[O-])c1 |  | 5.62 µM [rising, single point]
9 | CC1CCCC(NC(=O)c2ccc(CNc3c(N4CCCC4)c(=O)c3=O)cc2)C1C (centres undefined) |  | 14.1 µM [rising, partial curve, poor fit]
10 | Cc1cnc(NC(=O)CN2CCN(c3ccccn3)CC2)s1 | 35.5 µM [falling, single point] | 35.5 µM [falling, single point]
11 | CCOC(=O)c1[nH]c(C)c(C(=O)Nc2ccc(C)cc2C)c1C |  | 6.31 µM [rising, full curve]
12 | COc1ccc(/C=C(\NC(=O)c2ccc(OCC(C)C)cc2)C(=O)OCc2ccco2)cc1 |  | 3.98 µM [rising, full curve, poor fit]
13 | CN=C(NC#N)Nc1ccc(C2=NNC(=O)CC2C)cc1 (centres undefined) |  | 10 µM [rising, partial curve, poor fit]
14 | CC(C)c1nc2ccc(C(=O)NCCCN3CCN(c4cccc(Cl)c4)CC3)cc2o1 | 35.5 µM [falling, partial curve] | 35.5 µM [falling, partial curve, poor fit]
15 | Cc1ccc(/C=C2\SC(N3CCN(C(c4ccccc4)c4ccccc4)CC3)=NC2=O)o1 | 1.41 µM [falling, full curve, poor fit] | 3.16 µM [falling, partial curve]
16 | c1cnc(N2CCN(c3ncnc4c3oc3ccccc34)CC2)nc1 |  | 17.8 µM [rising, partial curve]
17 | COC(=O)c1c(N2C(=O)Nc3ccccc3N2O)sc2c1CCCC2 |  | 14.1 µM [rising, single point]
18 | CCOC(=O)C1CCC(CN(Cc2ccc(Cl)cc2)S(=O)(=O)c2cc(Cl)cc(Cl)c2)CC1 (centres undefined) |  | 3.98 µM [rising, single point]

Row | SMILES | AC50 [1] | AC50 [2]
19 | COCCn1c(CN2CCc3ccccc3C2)nc2c1c(=O)n(C)c(=O)n2C | 0.158 µM [rising, full curve, poor fit] | 
20 | CCOc1ccccc1NC(=O)Cn1nnc(C(=O)NCc2ccco2)c1N | 0.891 µM [falling, full curve, poor fit] | 1.41 µM [falling, partial curve]
21 | O=c1c(-c2ccc(Cl)cc2)nc2cnc(N3CCNCC3)nc2n1CCc1ccccc1 | 20 µM [falling, partial curve] | 20 µM [falling, partial curve]
22 | O=C(Oc1ccccc1N1C(=O)CCC1=O)c1ccco1 | 0.447 µM [rising, full curve, poor fit] | 
23 | COc1ccc([N+](=O)[O-])cc1NC(=O)Cc1noc2ccccc12 |  | 22.4 µM [falling, single point]
24 | CCOC(=O)c1c(S(=O)(=O)NCC(=O)Nc2ccc(C)c(N(C)C)c2)c(C)n(C)c1C | 15.8 µM [rising, partial curve, poor fit] | 10 µM [rising, partial curve, poor fit]
25 | COc1ccc(N2CCN(C(=O)c3ccc(C)c(Cl)c3)CC2)cc1 | 17.8 µM [rising, single point] | 22.4 µM [rising, single point]
26 | CCCCN(CCCC)c1cc(C)nc(-c2ccccc2O)n1 | 25.1 µM [rising, partial curve, poor fit] | 17.8 µM [rising, partial curve, poor fit]
27 | Cn1cccc1CC(=O)N/N=C/c1cc([N+](=O)[O-])ccc1Cl | 0.891 µM [rising, full curve, poor fit] | 
28 | O=C(CCCOc1ccc(Cl)cc1Cl)Nc1ccncc1 |  | 5.62 µM [rising, full curve]
29 | Cn1nc(-c2ccccc2)c2cc(C(=O)O)sc21 | 0.0126 µM [falling, full curve, poor fit] | 
30 | C[C@H](N)[C@H](O)c1cccc(O)c1 | 0.447 µM [falling, full curve] | 0.126 µM [falling, full curve, poor fit]
31 | S=C(NCCC(c1ccccc1)c1ccccc1)Nc1ccccc1Cl |  | 35.5 µM [falling, single point]
32 | Cc1[nH]c2ccccc2c1C(=O)Cn1c(=O)oc2ccccc21 |  | 8.91 µM [rising, partial curve, poor fit]
33 | CCOc1ccc(Cc2nnc(N)s2)cc1OCC |  | 35.5 µM [rising, single point]
34 | O=C(CC1Nc2cccc3cccc(c23)NC1=O)Nc1ccccc1 (centres undefined) |  | 5.01 µM [rising, partial curve, poor fit]
35 | NNc1ncnc2scc(-c3ccc(Cl)cc3)c12 |  | 20 µM [rising, partial curve]
